Data as given in patent US6911429B2, “Compositions and methods for treating cellular response to injury and other proliferating cell disorders regulated by hyaladherin and hyaluronans” (Transition Therapeutics Inc., priority 1999, dated 2005).
No constants are given. Whether binding was seen depends on the method and setting. Binding calls can cover weak binding; strength is not graded here. Tags and fused reporters may be left off the sequences shown.

What was measured:
[1] = biological target: erk1 His-6-tagged fusion protein; experiment: erk1 His-6 pulled down on RHAMM-coupled beads, anti-erk1 western blot
[2] = biological target: erk1 His-6-tagged fusion protein; experiment: in vitro bead pull-down
[3] = biological target: erk1 His-6-tagged fusion protein; experiment: in vitro bead pull-down (figure legend)

binding [1]: binds
binding [2]: binds
binding [3]: binds
B1: RHAMM v5 (95 kDa full length murine RHAMM) (receptor, UniProt Q00547 1-794, looked up)
chain: MSFPKAPLKRFNDPSGCAPSPGAYDVKTSEATKGPVSFQKSQRFKNQRESQQNLNIDKDTTLLASAKKAKKSVSKKDSQKNDKDVKRLEKEIRALLQERGTQDKRIQDMESELEKTEAKLNAAVREKTSLSASNASLEKRLTELTRANELLKAKFSEDGHQKNMRALSLELMKLRNKRETKMRSMMVKQEGMELKLQATQKDLTESKGKIVQLEGKLVSIEKEKIDEKCETEKLLEYIQEISCASDQVEKCKVDIAQLEEDLKEKDREILSLKQSLEENITFSKQIEDLTVKCQLLETERDNLVSKDRERAETLSAEMQILTERLALERQEYEKLQQKELQSQSLLQQEKELSARLQQQLCSFQEEMTSEKNVFKEELKLALAELDAVQQKEEQSERLVKQLEEETKSTAEQLTRLDNLLREKEVELEKHIAAHAQAILIAQEKYNDTAQSLRDVTAQLESVQEKYNDTAQSLRDVTAQLESEQEKYNDTAQSLRDVTAQLESEQEKYNDTAQSLRDVTAQLESVQEKYNDTAQSLRDVTAQLESYKSSTLKEIEDLKLENLTLQEKVAMAEKSVEDVQQQILTAESTNQEYARMVQDLQNRSTLKEEEIKEITSSFLEKITDLKNQLRQQDEDFRKQLEEKGKRTAEKENVMTELTMEINKWRLLYEELYEKTKPFQQQLDAFEAEKQALLNEHGATQEQLNKIRDSYAQLLGHQNLKQKIKHVVKLKDENSQLKSEVSKLRSQLVKRKQNELRLQGELDKALGIRHFDPSKAFCHASKENFTPLKEGNPNCC
